These are yes or no findings as the source states them, for the method shown. Some entries that bind do so weakly or less than the wild type.

The chains behind the UniProt entries cited, without tags or fusion partners. Where a name states a change or a piece, a line headed by the entry shows the natural chain unless it says otherwise.
UniProt Q9H7M9: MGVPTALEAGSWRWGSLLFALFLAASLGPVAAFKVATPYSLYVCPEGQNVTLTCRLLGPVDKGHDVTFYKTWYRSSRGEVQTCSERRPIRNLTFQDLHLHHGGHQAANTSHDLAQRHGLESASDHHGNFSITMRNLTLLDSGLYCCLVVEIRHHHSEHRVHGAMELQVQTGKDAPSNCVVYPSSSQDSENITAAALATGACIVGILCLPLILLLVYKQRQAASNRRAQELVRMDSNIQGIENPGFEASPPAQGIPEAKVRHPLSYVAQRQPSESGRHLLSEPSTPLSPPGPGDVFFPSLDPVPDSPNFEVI

One molecule from patent US20210017281A1 can be followed below.

For this experiment, the target named is human VISTA (human) (UniProt Q9H7M9). Put plainly: ELISA on recombinant VISTA. On the technique in general: An ELISA detects its analyte on a solid surface through an enzyme-linked reagent.

B1: INX901 | VSTB56 (antibody, V domains shown)
VH: QVQLVQSGAEVKKPGASVKVSCKASGYTFTSYWLHWVRQAPGQGLEWMGYIIPNTLHTDYNQKFKDRVTMTRDTSTSTVYMELSSLRSEDTAVYYCARLDGDYDYALDYWGQGTLVTVSS
VL: DIVMTQTPLSLSVTPGQPASISCRASESVEYYGTSFMQWYLQKPGQPPQLLIYTASNVESGVPDRFSGSGSGTDFTLKISRVEAEDVGVYYCQQSRKVPYTFGQGTKLEIK
As for B1, the binding result is “binds”.
